# Results reported in publication PMC3709825.
# Columns and labels:
# Experiment in all cases: EMSA
# [1] = tested on: MarA + SoxS; conditions: 20 mM HEPES, 100 mM KCl, 2 mM MgCl2, 0.1 mM EDTA, 20% glycerol, pH not stated, […], recombinant protein, protein details: His-tag,His-tag, probe letters rebuilt from the primers and the genome
# [2] = target: T1, SoxS (UniProt Q56143); conditions: shift required 400 nM SoxS; 20 mM HEPES, 100 mM KCl, 2 mM MgCl2, 0.1 mM EDTA, 20% glycerol; pH not stated; 30 min room temperature; DNA ~2 ng/ml; 6% native PAGE in 0.5x TBE, ethidium bromide; recombinant protein; protein details: His-tag; probe letters rebuilt from the primers and the …
# T1 sequence (looked up, limits assumed): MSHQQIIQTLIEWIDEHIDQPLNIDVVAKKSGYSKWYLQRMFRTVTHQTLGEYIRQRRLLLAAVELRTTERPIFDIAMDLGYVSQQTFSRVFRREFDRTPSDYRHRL
# [3] = target: T2, MarA (UniProt P0A2S4); conditions: shift at 100 nM MarA; 20 mM HEPES, 100 mM KCl, 2 mM MgCl2, 0.1 mM EDTA, 20% glycerol; pH not stated; 30 min room temperature; […]; recombinant protein; protein details: His-tag; probe letters rebuilt from the primers and the genome
# T2 sequence (looked up, limits assumed): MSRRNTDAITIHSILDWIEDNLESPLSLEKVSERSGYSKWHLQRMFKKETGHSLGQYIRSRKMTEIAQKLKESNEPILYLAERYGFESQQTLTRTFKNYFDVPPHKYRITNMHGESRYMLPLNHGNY
Sequence,"binding result ([1]; MarA constant 200 nM, higher-mass complex already at 0.0125 uM SoxS, 30 min room temperature)","binding result ([1]; SoxS constant 0.8 uM, higher-mass complex at 100 nM MarA, 30 min room …)",binding result [2],binding result [3]
CGGGGTACCCCCGATATCGAAAATTCGCGACAGGTTGAAGGGCGGTTTTCATAAATAGCGCAACTGACGTTTTCACCCGGCGTGCCAATTAGCGCTTTACAGTGCGGCTGTTTTTGGTTGGTACCGGCCATACAACGTAAAAAAGGGGTAACAGGCTCGGTTAATGACGCCGGAACGCGTCCGCTGGCATCGTCGCCTTCAGCCCAATAAAAGGAGACACGAAAATAGGCACAACAGGCACCGCATGTCATGCATGGGTTAAGAACGCTCATGATTCACCTGCAAAAAACTAACGTATCAATAGATTACAACGGAAATTAATCTGTCCCGCAGTGTTCGCGAATCTTAACGCCACGCGCCATTGCGGGACATTGATTACCTTAGCCAGCCTTTATCGCCAGGGCAACAGGAAAAGACAAATATTTGCATAGCGTGAATATGTCAAAATTGATCTGAATTCCTATAACCAGGATTTTCAATACAAGTTCTAAATTAATCTGGATCAATAAATGTTAAATTATAAGAACAAATGTGATCTGTATTAGATCACTTATTACTTCATTGTGGGTATATTCATCACGCTTTTATAACCATAACGATGGAGCGGGTAAGCTTGGG (double strand) [fragment C (MS-B mutated)],binds,binds,–,–
CGGGGTACCCCCGATATCGAAAATTCGCGACAGGTTGAAGGGCGGTTTTCATAAATAGCGCAACTGACGTTTTCACCCGGCGTGCCAATTAGCGCTTTACAGTGCGGCTGTTTTTGGTTGGTACCGGCCATACAACGTAAAAAAGGGGTAACAGGCTCGGTTAATGACGCCGGAACGCGTCCGCTGGCATCGTCGCCTTCAGCCCAATAAAAGGAGACACGAAAATAGGCACAACAGGCACCGCATGTCATGCATGGGTTAAGAACGCTCATGATTCACCTGCAAAAAACTAACGTATCAATAGATTACAACGGAAATTAATCTGTCCCGCAGTGTTCGCGAATCTTAACGCCACGCGCCATTGCGGGACATTGATTACCTTAGCCAGCCTTTATCGCCAGGGCAACAGGAGCAGACAAATATTTGCATAGCGTGAATATGTCAAAATTGATCTGAATTCCTATAACCAGGATTTTCAATACAAGTTCTAAATTAATCTGGATCAATAAATGTTAAATTATAAGAACAAATGTGATCTGTATTAGATCACTTATTACTTCATTGTGGGTATATTCATCACGCTTTTATAACCATAACGATGGAGCGGGTAAGCTTGGG (double strand) [ompW promoter fragment A (wild type)],–,–,binds,binds

# Construct, isoform or probe ends are uncertain for at least one entry. For some of these results: Protein sequences can lack the tags named with them.
